Results: PubChem BioAssay AID256 (DTP/NCI, 2004)
The list shows only some results of the screen, not a fair sample: it gathers tests that were run many times, whatever their T/C, doses with no T/C, and many T/C values between a quarter and a half above the control. Other doses and runs of a compound stand elsewhere. T/C is the treated group as % of the vehicle group. Some doses have a count of surviving animals in place of a T/C: the source files T/C as zero there, which appears to mark a toxic dose or a test without result, not a measured value. Some doses without a T/C left all or most animals alive at the check, yet need not have been tolerated: survival well below the control is almost never listed, so the zero probably covers shortened survival too. Survivors were counted at the toxicity check, usually on the fifth day, unless a day is given; later deaths do not show. Schedule codes are those of the source, taken here to give the interval after Q, in days (D) or hours (H), and the number of doses after X. Some doses were run more than once; their values stand side by side, smallest first. Where survival is the endpoint, this PubChem deposit counts one and a half times the control or more as active, and values a quarter to a half above the control carry no call in these data; other NCI protocols may use other cut-offs. Counts like (3×) say how often a value occurs here. Some T/C values are followed by the survivors on the day toxicity was checked, most often the fifth; without a count, all were alive then.

Test system: CD2F1 mice, L1210 leukemia ip, survival T/C
Assay: NCI In Vivo Anticancer Drug Screen. Data for tumor model L1210 Leukemia (intraperitoneal) in CD2F1 (CDF1) mice
Settings: higher T/C = longer survival
Outline: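 Mice carrying a transplanted tumor received test compound or vehicle alone. The value is the measurement in the treated group divided by that in the vehicle-treated control group.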

[1] = T/C endpoint: median survival time, dose: 125.0 mg/kg/injection, schedule: Q01DX001 (ip), vehicle: water
[2] = T/C endpoint: mean survival time, dose: 400.0 mg/kg/injection, schedule: Q04DX003 (ip), vehicle: saline with Tween-80
[3] = T/C endpoint: mean survival time, dose: 400.0 mg/kg/injection, schedule: Q01DX009 (ip), vehicle: saline with Tween-80
[4] = T/C endpoint: mean survival time, dose: 100.0 mg/kg/injection, schedule: Q01DX009 (ip), vehicle: saline with Tween-80
[5] = T/C endpoint: mean survival time, dose: 200.0 mg/kg/injection, schedule: Q01DX009 (ip), vehicle: saline with Tween-80
[6] = T/C endpoint: mean survival time, dose: 400.0 mg/kg/injection, schedule: Q04DX003 (ip), vehicle: saline

`NCCCN=c1ccc2c3c1c(O)c1c(O)ccc(=O)c1c3[nH]n2CCNCCO` was tested, and the T/C (T/C endpoint: median survival time, dose: 1.8 mg/kg/injection, schedule: Q01DX005 (iv), vehicle: saline) was 131 % of control, the T/C (T/C endpoint: median survival time, dose: 2.0 mg/kg/injection, schedule: Q01DX009 (ip), vehicle: water) was 143 % of control [5 of 6 alive] and the T/C (T/C endpoint: median survival time, dose: 2.2 mg/kg/injection, schedule: Q01DX001 (ip), vehicle: water) was 125 and 137 % of control. The T/C (T/C endpoint: median survival time, dose: 4.5 mg/kg/injection, schedule: Q01DX001 (ip), vehicle: water) was 136 % of control, the T/C (T/C endpoint: median survival time, dose: 9.0 mg/kg/injection, schedule: Q01DX001 (iv), vehicle: saline) was 146 % of control and the T/C (T/C endpoint: median survival time, dose: 9.0 mg/kg/injection, schedule: Q01DX001 (iv), vehicle: water) was 125 and 131 % of control. For the same compound, the survivor count (T/C endpoint: median survival time, dose: 14.4 mg/kg/injection, schedule: Q01DX005 (iv), vehicle: saline) was 6 of 10, the T/C (T/C endpoint: median survival time, dose: 18.0 mg/kg/injection, schedule: Q01DX001 (iv), vehicle: water) was 142 and 147 % of control and the survivor count (T/C endpoint: median survival time, dose: 24.0 mg/kg/injection, schedule: Q03HX024 (ip), vehicle: saline) was 6 of 10. The T/C (T/C endpoint: median survival time, dose: 25.0 mg/kg/injection, schedule: Q01DX001 (ip), vehicle: water, evaluated on day 45) was 524 % of control (2×), the T/C (T/C endpoint: median survival time, dose: 25.0 mg/kg/injection, schedule: Q01DX001 (ip), vehicle: water, evaluated on day 60) was 345 % of control (2×) and the T/C (T/C endpoint: median survival time, dose: 36.0 mg/kg/injection, schedule: Q01DX001 (iv), vehicle: water) was 148 % of control. The survivor count (T/C endpoint: median survival time, dose: 36.0 mg/kg/injection, schedule: Q03HX008 (ip), vehicle: saline) was 5 of 10, the T/C (T/C endpoint: median survival time, dose: 37.0 mg/kg/injection, schedule: Q01DX001 (ip), vehicle: water, evaluated on day 45) was 219 % of control (2×) and the T/C (T/C endpoint: median survival time, dose: 37.0 mg/kg/injection, schedule: Q01DX001 (ip), vehicle: water, evaluated on day 60) was 740 % of control (2×). The T/C (T/C endpoint: median survival time, dose: 56.0 mg/kg/injection, schedule: Q01DX001 (ip), vehicle: water, evaluated on day 45) was 548 % of control (2×), the T/C (T/C endpoint: median survival time, dose: 56.0 mg/kg/injection, schedule: Q01DX001 (ip), vehicle: water, evaluated on day 60) was 740 % of control (2×) and the T/C (T/C endpoint: median survival time, dose: 57.6 mg/kg/injection, schedule: Q01DX005 (ip), vehicle: saline) was 126 % of control. The survivor count (T/C endpoint: median survival time, dose: 72.0 mg/kg/injection, schedule: Q01DX001 (iv), vehicle: saline) was 3 of 10, the survivor count (T/C endpoint: median survival time, dose: 72.0 mg/kg/injection, schedule: Q01DX001 (iv), vehicle: water) was 0 of 10 and the T/C (T/C endpoint: median survival time, dose: 85.0 mg/kg/injection, schedule: Q01DX001 (ip), vehicle: water, evaluated on day 45) was 548 % of control (2×). For the same compound, the T/C (T/C endpoint: median survival time, dose: 85.0 mg/kg/injection, schedule: Q01DX001 (ip), vehicle: water, evaluated on day 60) was 740 % of control [8 of 10 alive] (2×), the T/C [1] was 740 % of control [8 of 10 alive] (2×) and the survivor count [1] was 2 of 10. For the same compound, the survivor count (T/C endpoint: median survival time, dose: 144.0 mg/kg/injection, schedule: Q01DX001 (ip), vehicle: water) was 2 of 10 and the survivor count (T/C endpoint: median survival time, dose: 256.0 mg/kg/injection, schedule: Q01DX009 (oral), vehicle: saline) was 6 of 10.

In the case of `CN(C)S(=O)(=O)Oc1cccc(N)c1`, the survivor count [2] is reported as 5 of 6.

In the case of `COC(=O)c1cc(C)ccc1O`, the survivor count [3] is reported as 0 of 6.

In the case of `CCOC(=O)Nc1cc2c(c(N)n1)N=C(CN(C)c1ccccc1)CN2`, the survivor count (T/C endpoint: mean survival time, dose: 25.0 mg/kg/injection, schedule: Q01DX009 (ip), vehicle: Klucel (hydroxypropylcellulose) (HPC)) is reported as 6 of 6, the survivor count (T/C endpoint: mean survival time, dose: 50.0 mg/kg/injection, schedule: Q01DX009 (ip), vehicle: Klucel (hydroxypropylcellulose) (HPC)) is reported as 6 of 6 and the survivor count (T/C endpoint: mean survival time, dose: 100.0 mg/kg/injection, schedule: Q01DX009 (ip), vehicle: Klucel (hydroxypropylcellulose) (HPC)) is reported as 6 of 6. The survivor count (T/C endpoint: mean survival time, dose: 200.0 mg/kg/injection, schedule: Q01DX009 (ip), vehicle: Klucel (hydroxypropylcellulose) (HPC)) was 0 of 6.

In the case of `CCOC(=O)CCC(NC(=O)N(CCCl)CCCl)C(=O)OCC` (stereo not given), the T/C (T/C endpoint: mean survival time, dose: 50.0 mg/kg/injection, schedule: Q01DX001 (ip), vehicle: saline) is reported as 126 % of control, the T/C (T/C endpoint: mean survival time, dose: 400.0 mg/kg/injection, schedule: Q01DX001 (ip), vehicle: carboxymethylcellulose (CMC)) is reported as 132 % of control and the T/C (T/C endpoint: mean survival time, dose: 600.0 mg/kg/injection, schedule: Q01DX001 (ip), vehicle: carboxymethylcellulose (CMC)) is reported as 139 % of control.

For `O=P1(N(CCCl)CCCl)OCCC(OO)N1CCCl` (stereo not given), the T/C (T/C endpoint: mean survival time, dose: 50.0 mg/kg/injection, schedule: Q01DX001 (ip), vehicle: Klucel (hydroxypropylcellulose) (HPC)) was 147 % of control and the survivor count (T/C endpoint: mean survival time, dose: 200.0 mg/kg/injection, schedule: Q01DX001 (ip), vehicle: DMSO) was 0 of 2.

For `OC(CF)CCl` (stereo not given), the survivor count [4] was 0 of 6, the survivor count [5] was 0 of 6 and the survivor count [6] was 5 of 6.

With `CCN(CC)C(=O)[S-].CCN(CC)C(=O)[S-].[Ni+2]` the survivor count [4] was 2 of 6, the survivor count [5] was 3 of 6 and the survivor count [3] was 0 of 6.

In the case of `C#CCOC(=O)NCCC`, the survivor count (T/C endpoint: mean survival time, dose: 400.0 mg/kg/injection, schedule: Q04DX003 (ip), vehicle: Klucel (hydroxypropylcellulose) (HPC)) is reported as 2 of 6.

In the case of `OCN(CO)c1nc(N(CO)CO)nc(N(CO)CO)n1`, the survivor count (T/C endpoint: mean survival time, dose: 50.0 mg/kg/injection, schedule: Q01DX009 (ip), vehicle: saline with Tween-80) is reported as 5 of 10 and the survivor count [4] is reported as 0 of 10.

With `CSc1ncnc2c1cnn2C1OC(COC(C)=O)C(OC(C)=O)C1OC(C)=O` (stereo not given) the T/C (T/C endpoint: median survival time, dose: 72.0 mg/kg/injection, schedule: Q01DX005 (ip), vehicle: distilled water + Tween-80) was 130 % of control.

In the case of `CCOc1cccc(Cl)n1`, the survivor count [3] is reported as 1 of 6.

`CCCCOCN(COCCCC)C12CC3CC(CC(C3)C1)C2` was tested, and the survivor count [3] was 0 of 6 and 2 of 10.

`OCCN1CCN(CC/C=C2/c3ccccc3Sc3ccc(Cl)cc32)CC1` was tested, and the survivor count (T/C endpoint: mean survival time, dose: 50.0 mg/kg/injection, schedule: Q01DX009 (ip), vehicle: saline) was 1 of 6.

With `C/C(=N/O)c1cccc([N+](=O)[O-])c1` the survivor count [3] was 3 of 6.

`N/C(=N\O)c1cn(C2OC(CO)C(O)C2O)c2ncnc(N)c12` (stereo not given) was tested, and the T/C (T/C endpoint: mean survival time, dose: 2.0 mg/kg/injection, schedule: Q01DX007 (ip), vehicle: saline) was 139 % of control, the T/C (T/C endpoint: mean survival time, dose: 2.0 mg/kg/injection, schedule: Q01DX009 (ip), vehicle: saline) was 137 % of control and the T/C (T/C endpoint: mean survival time, dose: 2.0 mg/kg/injection, schedule: Q03DX003 (ip), vehicle: saline) was 130 % of control. The T/C (T/C endpoint: mean survival time, dose: 2.0 mg/kg/injection, schedule: Q04DX003 (ip), vehicle: saline) was 127 % of control, the T/C (T/C endpoint: mean survival time, dose: 4.0 mg/kg/injection, schedule: Q01DX007 (ip), vehicle: saline) was 139 % of control and the T/C (T/C endpoint: mean survival time, dose: 4.0 mg/kg/injection, schedule: Q01DX009 (ip), vehicle: saline) was 133 % of control [5 of 6 alive]. The T/C (T/C endpoint: mean survival time, dose: 4.0 mg/kg/injection, schedule: Q03DX003 (ip), vehicle: saline) was 127 % of control, the T/C (T/C endpoint: mean survival time, dose: 4.0 mg/kg/injection, schedule: Q04DX003 (ip), vehicle: saline) was 127 % of control and the T/C (T/C endpoint: mean survival time, dose: 8.0 mg/kg/injection, schedule: Q01DX009 (ip), vehicle: saline) was 129 % of control. The T/C (T/C endpoint: mean survival time, dose: 8.0 mg/kg/injection, schedule: Q03DX003 (ip), vehicle: saline) was 125 % of control and the T/C (T/C endpoint: mean survival time, dose: 8.0 mg/kg/injection, schedule: Q04DX003 (ip), vehicle: saline) was 130 % of control.

In the case of `O=C(/C=C\c1ccc(NCc2ccc(C(=O)O)cc2)cc1)CCl`, the survivor count (T/C endpoint: mean survival time, dose: 100.0 mg/kg/injection, schedule: Q04DX003 (ip), vehicle: saline with Tween-80) is reported as 6 of 6, the survivor count [5] is reported as 0 of 6 and the survivor count [3] is reported as 0 of 6.

With `C[N+]1(C)N=C([O-])N(c2cccc3ccccc23)C1=O` the survivor count [3] was 3 of 6.

With `CCCCC(CC)COc1ccc(N=C(N)N=C(N)N)cc1` (stereo not given) the survivor count (T/C endpoint: mean survival time, dose: 100.0 mg/kg/injection, schedule: Q04DX002 (ip), vehicle: saline with Tween-80) was 0 of 3.

In the case of `COc1ccc(NCC(=O)O)c([N+](=O)[O-])c1`, the survivor count [2] is reported as 6 of 6.

In the case of `Nc1ccc2nc3c4ccccc4c(O)n3nc2c1`, the survivor count [3] is reported as 0 of 3.

In the case of `CN(C)N=Nc1c(F)cc(F)c(F)c1F`, the T/C [5] is reported as 125 % of control [5 of 6 alive] and the survivor count [3] is reported as 2 of 6.

With `N#CN1CCOCC1` the survivor count (T/C endpoint: mean survival time, dose: 400.0 mg/kg/injection, schedule: Q01DX009 (ip), vehicle: saline) was 0 of 6 and the survivor count [6] was 0 of 6.

In the case of `COc1ccc(N2C(N)=NC(N)=NC2(C)C)cc1`, the survivor count (T/C endpoint: mean survival time, dose: 100.0 mg/kg/injection, schedule: Q04DX002 (ip), vehicle: saline) is reported as 0 of 3 and the survivor count (T/C endpoint: mean survival time, dose: 200.0 mg/kg/injection, schedule: Q04DX002 (ip), vehicle: saline) is reported as 0 of 3.
